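Human melanoma cells were exposed to two drugs together for 72 h in 1,536-well plates and read by automated microscopy after fixing and staining. The read-out is the fraction of cleaved-PARP-positive nuclei, in % of that fraction in the DMSO control; 200 means twice the control level of this apoptosis marker. Every drug was used at one fixed concentration, the higher of two screened. These are primary screening values without error estimates. The marker varies much from line to line, for technical or biological reasons.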 This is part of the screen, not chosen by result.

All values are for the listed drug together with nilotinib (1 µM): Cc1cn(-c2cc(NC(=O)c3ccc(C)c(Nc4nccc(-c5cccnc5)n4)c3)cc(C(F)(F)F)c2)cn1

| Partner | COLO 792 |
|---|---|
| CCN(CC)CCNC(=O)c1c(C)[nH]c(/C=C2\C(=O)Nc3ccc(F)cc32)c1C at 2 µM | 102 |
| CN(C)S(=O)(=O)c1ccc2c(c1)/C(=C/c1cc3c([nH]1)CCCC3)C(=O)N2 at 2 µM | 185 |
| CS(=O)(=O)CCNCc1ccc(-c2ccc3ncnc(Nc4ccc(OCc5cccc(F)c5)c(Cl)c4)c3c2)o1 at 4 µM | 199 |
| Oc1nc(-c2ccc(C(F)(F)F)cc2)nc2c1CSCC2 at 10 µM | 93.0 |
| O=C(Nc1ccccc1)c1cc([N+](=O)[O-])ccc1Cl at 10 µM | 43.5 |
| N#CC[C@H](C1CCCC1)n1cc(-c2ncnc3[nH]ccc23)cn1 at 5 µM | 144 |
| Cc1cc(Nc2cc(N3CCN(C)CC3)nc(/C=C/c3ccccc3)n2)n[nH]1 at 0.2 µM | 115 |
| O=C(Nc1cccc(Cl)c1)Nc1ncc(CCNc2ncnc3ccsc23)s1 at 0.004 µM | 273 |
| NC(=O)c1ccc(N(C(N)=O)c2c(F)cccc2F)nc1-c1ccc(F)cc1F at 2 µM | 107 |
| CN1CCN(c2ccc3nc(-c4c(N)c5c(F)cccc5[nH]c4=O)[nH]c3c2)CC1 at 0.5 µM | 52.5 |
| COc1cc2ncnc(Nc3ccc(Oc4ccccc4)cc3)c2cc1OC at 10 µM | 158 |
| C[C@@H](N)c1ccc(C(=O)Nc2ccnc3[nH]ccc23)cc1 at 2 µM | 181 |
| Cn1cc(C2=C(c3cn(C4CCN(Cc5ccccn5)CC4)c4ccccc34)C(=O)NC2=O)c2ccccc21 at 4 µM | 92.1 |
| COCC[n+]1c2c(n(Cc3cnccn3)c1C)C(=O)c1ccccc1C2=O at 0.002 µM | 122 |
| O=C(O)[C@@H]1[O][Sb](=[O])([O][Sb]2(=[O])[O][C@H]([C@H](O)CO)[C@H](O)[C@H](C(=O)O)[O]2)[O][C@H]([C@H](O)CO)[C@@H]1O (stereo partly shown) at 10 µM | 98.1 |
| NCC(=O)Nc1ccc(-n2nc(C(F)(F)F)cc2-c2ccc3c(ccc4ccccc43)c2)cc1 at 5 µM | 312 |
| O=C(/C=C/c1cccnc1)NCCCCC1CCN(C(=O)c2ccccc2)CC1 at 0.05 µM | 1260 |
| c1cc(-c2cnn3cc(-c4ccc(OCCN5CCCCC5)cc4)cnc23)ccn1 at 2 µM | 51.3 |
| Nc1ccn([C@@H]2O[C@H](CO)[C@@H](O)C2(F)F)c(=O)n1 at 0.002 µM | 57.2 |
| COc1cc2c(Oc3ccc4[nH]c(C)cc4c3F)ncnc2cc1OCCCN1CCCC1 at 2 µM | 34.3 |
| O=c1cc(-c2cccc3c2Sc2ccccc2S3)oc(N2CCOCC2)c1 at 5 µM | 69.5 |
| Cc1cc(SCc2sc(-c3ccc(C(F)(F)F)c(F)c3)nc2C)ccc1OCC(=O)O at 10 µM | 107 |
| Cn1cnc2c(F)c(Nc3ccc(Br)cc3Cl)c(C(=O)NOCCO)cc21 at 0.075 µM | 240 |
| O=C(O)C(=O)Nc1sc2c(c1C(=O)O)CCNC2 at 8.33 µM | 47.6 |
| C[As](C)SC[C@H](NC(=O)CC[C@H](N)C(=O)O)C(=O)NCC(=O)O at 2 µM | 70.9 |
| CNC(=O)c1cc(Oc2ccc(NC(=O)Nc3ccc(Cl)c(C(F)(F)F)c3)cc2)ccn1 at 2 µM | 80.1 |

Source: doi:10.1371/journal.pone.0140310, primary screening data, rounded.